# Experimental data as given in the supplement of paper PMC12595434, “Development of retinoid nuclear receptor pathway antagonists through targeting aldehyde dehydrogenase 1A3” (iScience, 2025).
# Protein sequences, listed by entry. Tags and fused reporters are not part of them. Lines headed by an entry give the natural chain unless they say otherwise; changes in a name come on top.
# UniProt O75925, whole entry: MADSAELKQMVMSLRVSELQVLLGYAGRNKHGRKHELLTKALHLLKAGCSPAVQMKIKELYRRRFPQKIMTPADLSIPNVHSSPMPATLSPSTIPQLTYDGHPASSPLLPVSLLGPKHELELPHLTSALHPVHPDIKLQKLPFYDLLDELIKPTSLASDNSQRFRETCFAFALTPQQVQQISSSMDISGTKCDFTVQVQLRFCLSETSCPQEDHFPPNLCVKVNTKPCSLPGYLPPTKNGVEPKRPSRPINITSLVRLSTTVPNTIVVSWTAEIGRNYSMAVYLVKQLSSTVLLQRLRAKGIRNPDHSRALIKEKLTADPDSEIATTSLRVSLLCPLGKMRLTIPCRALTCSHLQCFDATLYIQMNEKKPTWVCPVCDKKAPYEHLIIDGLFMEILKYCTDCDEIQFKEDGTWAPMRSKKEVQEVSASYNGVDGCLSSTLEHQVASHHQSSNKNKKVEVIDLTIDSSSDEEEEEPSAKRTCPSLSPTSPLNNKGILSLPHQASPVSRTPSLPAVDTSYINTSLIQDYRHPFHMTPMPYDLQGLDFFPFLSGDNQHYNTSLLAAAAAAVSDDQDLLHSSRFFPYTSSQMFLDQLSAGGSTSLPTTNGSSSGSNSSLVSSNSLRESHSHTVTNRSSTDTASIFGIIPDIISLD
# UniProt P01889, whole entry: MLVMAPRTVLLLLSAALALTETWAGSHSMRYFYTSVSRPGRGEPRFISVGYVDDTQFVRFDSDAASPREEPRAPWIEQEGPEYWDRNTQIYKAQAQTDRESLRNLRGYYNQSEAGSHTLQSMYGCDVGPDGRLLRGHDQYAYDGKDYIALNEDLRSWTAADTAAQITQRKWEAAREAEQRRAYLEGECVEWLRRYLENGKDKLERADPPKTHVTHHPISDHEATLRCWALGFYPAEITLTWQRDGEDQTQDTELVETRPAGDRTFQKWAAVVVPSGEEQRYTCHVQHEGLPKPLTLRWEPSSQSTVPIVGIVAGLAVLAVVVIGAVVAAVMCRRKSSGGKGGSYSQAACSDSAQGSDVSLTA
# UniProt O95476: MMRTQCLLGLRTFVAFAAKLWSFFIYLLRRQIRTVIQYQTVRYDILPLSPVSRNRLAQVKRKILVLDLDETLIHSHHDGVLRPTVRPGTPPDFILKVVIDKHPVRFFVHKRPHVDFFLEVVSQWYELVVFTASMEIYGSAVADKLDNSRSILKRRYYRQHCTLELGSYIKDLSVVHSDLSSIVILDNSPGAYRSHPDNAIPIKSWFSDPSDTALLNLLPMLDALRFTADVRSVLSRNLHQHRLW
# UniProt O95167, whole entry: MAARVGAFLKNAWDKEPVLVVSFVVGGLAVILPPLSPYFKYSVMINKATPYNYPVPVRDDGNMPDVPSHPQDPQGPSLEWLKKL
# UniProt O95816: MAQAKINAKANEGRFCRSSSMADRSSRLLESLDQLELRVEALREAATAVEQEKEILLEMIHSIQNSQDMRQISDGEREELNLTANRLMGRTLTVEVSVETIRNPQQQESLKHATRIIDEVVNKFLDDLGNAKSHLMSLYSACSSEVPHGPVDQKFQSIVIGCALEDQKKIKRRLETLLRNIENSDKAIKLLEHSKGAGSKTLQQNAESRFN
# UniProt P05091: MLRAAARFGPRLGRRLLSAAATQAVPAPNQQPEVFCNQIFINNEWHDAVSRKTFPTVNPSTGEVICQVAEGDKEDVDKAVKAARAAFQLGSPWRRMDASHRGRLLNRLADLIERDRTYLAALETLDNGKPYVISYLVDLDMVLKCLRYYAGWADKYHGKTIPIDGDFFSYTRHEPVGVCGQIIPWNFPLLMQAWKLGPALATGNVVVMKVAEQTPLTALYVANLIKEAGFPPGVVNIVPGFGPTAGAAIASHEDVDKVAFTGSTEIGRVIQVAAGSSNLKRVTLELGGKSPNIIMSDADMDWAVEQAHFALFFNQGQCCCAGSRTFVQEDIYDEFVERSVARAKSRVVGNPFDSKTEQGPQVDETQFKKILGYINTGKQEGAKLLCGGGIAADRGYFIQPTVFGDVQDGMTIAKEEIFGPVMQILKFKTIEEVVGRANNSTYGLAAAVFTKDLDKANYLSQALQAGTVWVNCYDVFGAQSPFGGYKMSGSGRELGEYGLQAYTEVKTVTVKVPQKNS
# UniProt P05387, whole entry: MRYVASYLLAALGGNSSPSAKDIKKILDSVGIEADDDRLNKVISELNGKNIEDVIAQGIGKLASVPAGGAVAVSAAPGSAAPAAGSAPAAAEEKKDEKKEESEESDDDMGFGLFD
# UniProt O95168, whole entry: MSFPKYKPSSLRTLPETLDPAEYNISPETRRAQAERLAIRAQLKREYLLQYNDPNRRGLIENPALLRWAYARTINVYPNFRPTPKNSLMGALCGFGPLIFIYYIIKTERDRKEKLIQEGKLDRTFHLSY
# UniProt O95376: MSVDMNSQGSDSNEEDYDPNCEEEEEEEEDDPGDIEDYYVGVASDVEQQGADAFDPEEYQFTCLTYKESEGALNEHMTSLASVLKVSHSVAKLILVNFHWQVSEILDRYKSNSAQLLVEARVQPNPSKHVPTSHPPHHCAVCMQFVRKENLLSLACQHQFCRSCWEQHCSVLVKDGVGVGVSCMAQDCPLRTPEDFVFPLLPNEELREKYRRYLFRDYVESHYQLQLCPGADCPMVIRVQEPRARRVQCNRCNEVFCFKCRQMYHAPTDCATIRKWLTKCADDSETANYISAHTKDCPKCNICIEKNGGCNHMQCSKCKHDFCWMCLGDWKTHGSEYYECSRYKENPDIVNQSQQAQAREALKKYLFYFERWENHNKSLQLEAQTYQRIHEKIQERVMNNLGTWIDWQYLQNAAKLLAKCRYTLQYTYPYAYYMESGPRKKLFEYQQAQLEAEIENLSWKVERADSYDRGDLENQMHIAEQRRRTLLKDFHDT
# UniProt O95166, whole entry: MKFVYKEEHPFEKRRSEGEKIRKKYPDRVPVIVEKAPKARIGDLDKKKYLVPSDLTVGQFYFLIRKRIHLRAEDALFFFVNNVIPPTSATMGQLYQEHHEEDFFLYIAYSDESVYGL
# UniProt O95490: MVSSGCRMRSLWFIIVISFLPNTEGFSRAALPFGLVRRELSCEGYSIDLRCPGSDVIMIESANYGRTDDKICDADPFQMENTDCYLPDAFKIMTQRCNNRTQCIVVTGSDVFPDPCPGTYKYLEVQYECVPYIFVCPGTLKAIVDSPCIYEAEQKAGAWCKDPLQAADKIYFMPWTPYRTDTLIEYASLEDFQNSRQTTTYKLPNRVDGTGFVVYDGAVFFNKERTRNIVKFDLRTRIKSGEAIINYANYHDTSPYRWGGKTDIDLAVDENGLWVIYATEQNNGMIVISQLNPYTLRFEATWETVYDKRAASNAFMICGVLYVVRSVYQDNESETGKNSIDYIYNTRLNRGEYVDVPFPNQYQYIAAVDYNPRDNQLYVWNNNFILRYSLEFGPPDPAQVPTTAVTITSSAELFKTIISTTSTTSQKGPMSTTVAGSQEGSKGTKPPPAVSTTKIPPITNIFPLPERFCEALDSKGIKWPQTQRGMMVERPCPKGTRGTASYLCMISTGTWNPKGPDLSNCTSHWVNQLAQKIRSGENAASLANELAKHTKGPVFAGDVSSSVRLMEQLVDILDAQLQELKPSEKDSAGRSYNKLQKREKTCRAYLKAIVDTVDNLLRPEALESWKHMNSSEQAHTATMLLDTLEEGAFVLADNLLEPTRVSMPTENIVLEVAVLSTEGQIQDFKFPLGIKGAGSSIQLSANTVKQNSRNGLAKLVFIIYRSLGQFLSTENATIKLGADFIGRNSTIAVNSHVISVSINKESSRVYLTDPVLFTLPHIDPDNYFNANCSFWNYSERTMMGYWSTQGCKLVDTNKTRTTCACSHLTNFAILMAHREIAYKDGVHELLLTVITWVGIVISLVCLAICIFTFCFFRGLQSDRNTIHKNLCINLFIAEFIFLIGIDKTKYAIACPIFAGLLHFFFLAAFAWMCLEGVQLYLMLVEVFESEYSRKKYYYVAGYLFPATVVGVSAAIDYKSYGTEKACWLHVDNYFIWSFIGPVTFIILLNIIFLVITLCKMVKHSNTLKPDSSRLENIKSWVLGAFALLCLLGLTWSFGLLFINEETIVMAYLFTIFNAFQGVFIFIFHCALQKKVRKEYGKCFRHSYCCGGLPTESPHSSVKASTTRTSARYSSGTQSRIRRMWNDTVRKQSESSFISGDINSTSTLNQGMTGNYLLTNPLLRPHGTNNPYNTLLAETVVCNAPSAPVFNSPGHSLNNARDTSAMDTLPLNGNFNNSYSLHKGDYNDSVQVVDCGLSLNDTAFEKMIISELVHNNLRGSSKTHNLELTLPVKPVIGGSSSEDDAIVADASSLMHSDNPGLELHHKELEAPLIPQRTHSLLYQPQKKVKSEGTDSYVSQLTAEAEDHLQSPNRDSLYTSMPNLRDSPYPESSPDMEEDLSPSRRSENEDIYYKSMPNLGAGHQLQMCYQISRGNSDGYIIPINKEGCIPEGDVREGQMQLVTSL
# UniProt P04062: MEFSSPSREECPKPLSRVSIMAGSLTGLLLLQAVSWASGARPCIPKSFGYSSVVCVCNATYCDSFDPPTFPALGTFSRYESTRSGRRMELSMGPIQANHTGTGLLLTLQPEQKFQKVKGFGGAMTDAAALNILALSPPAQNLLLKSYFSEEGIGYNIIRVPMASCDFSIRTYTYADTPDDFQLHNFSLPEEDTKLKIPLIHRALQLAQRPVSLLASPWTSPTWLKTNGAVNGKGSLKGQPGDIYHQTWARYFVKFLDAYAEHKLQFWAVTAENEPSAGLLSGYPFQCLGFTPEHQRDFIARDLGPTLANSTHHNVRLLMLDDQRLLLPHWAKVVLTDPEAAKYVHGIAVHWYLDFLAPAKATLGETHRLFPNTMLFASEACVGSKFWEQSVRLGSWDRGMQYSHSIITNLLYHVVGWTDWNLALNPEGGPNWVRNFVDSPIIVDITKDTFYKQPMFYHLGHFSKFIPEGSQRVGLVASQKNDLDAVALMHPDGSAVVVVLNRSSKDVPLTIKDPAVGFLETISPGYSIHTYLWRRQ
# UniProt P01023, whole entry: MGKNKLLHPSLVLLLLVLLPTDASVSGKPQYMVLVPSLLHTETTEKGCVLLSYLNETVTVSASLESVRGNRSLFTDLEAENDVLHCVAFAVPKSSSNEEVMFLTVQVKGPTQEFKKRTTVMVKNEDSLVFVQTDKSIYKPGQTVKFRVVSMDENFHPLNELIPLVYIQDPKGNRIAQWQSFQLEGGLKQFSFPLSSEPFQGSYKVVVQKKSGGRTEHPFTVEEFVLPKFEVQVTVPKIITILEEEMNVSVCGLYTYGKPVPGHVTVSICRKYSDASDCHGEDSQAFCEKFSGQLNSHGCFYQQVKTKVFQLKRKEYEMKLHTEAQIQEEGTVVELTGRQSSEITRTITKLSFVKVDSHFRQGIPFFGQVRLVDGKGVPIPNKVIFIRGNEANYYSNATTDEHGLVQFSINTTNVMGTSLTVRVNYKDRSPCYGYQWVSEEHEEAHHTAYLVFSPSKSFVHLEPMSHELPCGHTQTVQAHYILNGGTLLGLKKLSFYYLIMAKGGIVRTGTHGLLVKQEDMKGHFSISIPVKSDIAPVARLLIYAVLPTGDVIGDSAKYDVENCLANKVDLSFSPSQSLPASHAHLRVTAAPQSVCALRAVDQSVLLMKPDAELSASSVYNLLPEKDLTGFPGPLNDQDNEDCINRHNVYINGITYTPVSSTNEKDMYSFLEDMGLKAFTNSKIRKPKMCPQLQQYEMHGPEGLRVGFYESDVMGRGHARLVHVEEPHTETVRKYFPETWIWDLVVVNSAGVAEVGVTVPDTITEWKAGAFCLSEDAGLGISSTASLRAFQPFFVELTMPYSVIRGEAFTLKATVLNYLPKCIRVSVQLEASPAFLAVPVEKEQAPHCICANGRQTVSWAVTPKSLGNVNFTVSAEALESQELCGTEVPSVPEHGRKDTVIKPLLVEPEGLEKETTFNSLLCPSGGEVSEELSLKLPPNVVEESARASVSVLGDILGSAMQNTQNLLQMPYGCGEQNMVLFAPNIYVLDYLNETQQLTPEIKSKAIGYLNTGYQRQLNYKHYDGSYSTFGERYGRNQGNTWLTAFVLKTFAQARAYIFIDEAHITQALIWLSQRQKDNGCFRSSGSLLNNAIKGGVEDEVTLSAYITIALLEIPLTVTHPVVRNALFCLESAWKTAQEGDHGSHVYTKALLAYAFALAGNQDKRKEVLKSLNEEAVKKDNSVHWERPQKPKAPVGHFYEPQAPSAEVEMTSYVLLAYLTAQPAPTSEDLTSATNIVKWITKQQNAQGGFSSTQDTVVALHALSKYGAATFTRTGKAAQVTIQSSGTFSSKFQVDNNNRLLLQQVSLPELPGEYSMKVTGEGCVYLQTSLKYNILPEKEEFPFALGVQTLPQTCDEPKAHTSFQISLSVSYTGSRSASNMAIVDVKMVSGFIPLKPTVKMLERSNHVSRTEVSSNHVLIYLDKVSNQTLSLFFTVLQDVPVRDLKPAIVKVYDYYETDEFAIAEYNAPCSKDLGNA
# Some of the results follow. This is a noisy data set.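 Many melting curves are irregular; where none melted, Tm was taken as 64 °C.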
# Compound: CCc1cnccc1C(=O)Nc1cc2c(cc1F)NC(=O)CC2
# Assay: melting temperature shift (DMSO Tm minus MBE1-treated Tm) in cellular thermal proteome profiling; higher = less thermal stabilization by MBE1 (negative = stabilized by MBE1)
# Settings: A375
Target,melting temperature shift (MBE1 concentration: 100 nM),melting temperature shift (MBE1 concentration: 1 uM)
UniProt O75925,-0.673 °C,-0.461 °C
FKBP9 (UniProt O95302),-0.59 °C,0.543 °C
P30462 (UniProt P01889),-2.8 °C,-3.28 °C
UniProt O95476,-1.14 °C,0 °C
UFL1 (UniProt O94874),0.409 °C,0.263 °C
UniProt O95167,0.177 °C,0.379 °C
BAG2 (UniProt O95816),0.409 °C,0 °C
PAK3 (UniProt O75914),-0.948 °C,-1.33 °C
UniProt P05091,0.376 °C,0.57 °C
RPLP2 (UniProt P05387),-2.8 °C,-4.77 °C
NDUFB4 (UniProt O95168),-0.765 °C,-0.537 °C
ARIH2 (UniProt O95376),0.00611 °C,0.379 °C
FGFR1OP (UniProt O95684),1.48 °C,0.91 °C
GABARAP (UniProt O95166),-0.798 °C,-1.4 °C
UniProt O95490,2.1 °C,2.3 °C
PCCA (UniProt P05165),-0.355 °C,0.644 °C
UniProt P06744,-0.288 °C,-0.00671 °C
INSR (UniProt P06213),-0.551 °C,0.212 °C
GBA (UniProt P04062),-0.154 °C,-0.178 °C
UniProt P01023,-1.49 °C,1.06 °C
CD2BP2 (UniProt O95400),-0.122 °C,-0.41 °C

# Record cards, from the list above.
# FKBP9 (UniProt O95302) as listed: melting temperature shift (MBE1 concentration: 100 nM): -0.59 °C; melting temperature shift (MBE1 concentration: 1 uM): 0.543 °C
# INSR (UniProt P06213) as listed: melting temperature shift (MBE1 concentration: 100 nM): -0.551 °C; melting temperature shift (MBE1 concentration: 1 uM): 0.212 °C
